Results as given in paper PMC2742731.
These are yes or no findings as the source states them, for the method shown. For part of these data: A result given as binding can be weak or reduced; the word gives no strength. For part of these data: Where a sequence is shown, tags or fusion partners need not be part of it.

B1: SYP-4 (prey found in the yeast two-hybrid library screen) (protein, UniProt Q9N5K3 1-605)
chain: MSFPTLQVRPNEKNPKVLRCHEFLRQSNQLVERNMINTEGRKMLAKLLTKMVSEAKGIYALDERRAELAKSGKLQEKLKSAYQTSLTVMEDRLHIAELSRQVQEKKLTVQQKYYECDDLRKSVQETNTEARRVQEINEQRLVDTTRATEELIVKSASILKNLENSSDVHKLRAMEEEKRILEEVVEGLRDQKKCLADDIRTKKATLKAESKKSFEKTVIECAKHYKLHQSLMPKLDKSKRSLETLKDEEENRRICGSLSLDETMQFDRSFILASMDKTNKPEKAVQQLTSKSSEVSITPQISETAKSSFSKEPIPTQHPMEVGEEPVIEHSAEESVHIEPPNVTEIREVVPQITIQPTRQDSVVQRDAEELDTSAVPSPQPESILDEPEEEEEELSNHENHADQSMDVMEVDQEVPEESPMEVGEQEEIEQPSVFKDILATEQAALSQEQEPEIVEKQADNDVQFVDDQQVGAQLDVEDEEEVMSENGSNKSNNFSFNFFGNSKGTSAGEGGGEGNFDFNFDGIGAGDDGSNNGGSTGDLDFLNYDGEDEGKGSGNTQSDPFGFASNGNAAGGGGDGSFNFNFDGDGEGGATSGAGGNSTSFFNF
B2: SYP-4 full length fused to the activation domain (AD) of GAL4 (protein, UniProt Q9N5K3 1-605)
chain: MSFPTLQVRPNEKNPKVLRCHEFLRQSNQLVERNMINTEGRKMLAKLLTKMVSEAKGIYALDERRAELAKSGKLQEKLKSAYQTSLTVMEDRLHIAELSRQVQEKKLTVQQKYYECDDLRKSVQETNTEARRVQEINEQRLVDTTRATEELIVKSASILKNLENSSDVHKLRAMEEEKRILEEVVEGLRDQKKCLADDIRTKKATLKAESKKSFEKTVIECAKHYKLHQSLMPKLDKSKRSLETLKDEEENRRICGSLSLDETMQFDRSFILASMDKTNKPEKAVQQLTSKSSEVSITPQISETAKSSFSKEPIPTQHPMEVGEEPVIEHSAEESVHIEPPNVTEIREVVPQITIQPTRQDSVVQRDAEELDTSAVPSPQPESILDEPEEEEEELSNHENHADQSMDVMEVDQEVPEESPMEVGEQEEIEQPSVFKDILATEQAALSQEQEPEIVEKQADNDVQFVDDQQVGAQLDVEDEEEVMSENGSNKSNNFSFNFFGNSKGTSAGEGGGEGNFDFNFDGIGAGDDGSNNGGSTGDLDFLNYDGEDEGKGSGNTQSDPFGFASNGNAAGGGGDGSFNFNFDGDGEGGATSGAGGNSTSFFNF

Tests used:
[1] = molecular target: SYP-2 N-terminal truncation (ΔN) fused to the DNA binding domain (DB) of GAL4 (C. elegans); assay: two-hybrid; library screen: SYP-1, SYP-2 and SYP-3 full-length constructs and N- and C-terminal truncations as baits; cDNA library from mixed-stage worms (SYP-1 and SYP-2 baits also on an ORFeome library)
[2] = molecular target: SYP-3 C-terminal truncation (ΔC) fused to the DNA binding domain (DB) of GAL4 (C. elegans); assay: as above
[3] = molecular target: SYP-1 C-terminal truncation (ΔC) fused to the DNA binding domain (DB) of GAL4 (C. elegans); assay: as above
[4] = molecular target: SYP-2 C-terminal truncation (ΔC) fused to the DNA binding domain (DB) of GAL4 (C. elegans); assay: as above
[5] = molecular target: SYP-1 full length fused to the DNA binding domain (DB) of GAL4 (C. elegans); assay: as above
[6] = molecular target: SYP-1 N-terminal truncation (ΔN) fused to the DNA binding domain (DB) of GAL4 (C. elegans); assay: as above
[7] = molecular target: SYP-2 full length fused to the DNA binding domain (DB) of GAL4 (C. elegans); assay: as above
[8] = molecular target: SYP-2 N-terminal truncation (ΔN) fused to the DNA binding domain (DB) of GAL4 (C. elegans); assay: two-hybrid; direct test: SYP-1, SYP-2, SYP-3 full length, ΔN and ΔC fused to GAL4 DB, SYP-4 full length fused to GAL4 AD; β-galactosidase activity (X-Gal) and growth on 20 mM 3-AT plates
[9] = molecular target: SYP-3 C-terminal truncation (ΔC) fused to the DNA binding domain (DB) of GAL4 (C. elegans); assay: as above
[10] = molecular target: SYP-1 C-terminal truncation (ΔC) fused to the DNA binding domain (DB) of GAL4 (C. elegans); assay: as above
[11] = molecular target: SYP-3 N-terminal truncation (ΔN) fused to the DNA binding domain (DB) of GAL4 (C. elegans); assay: as above
[12] = molecular target: SYP-2 C-terminal truncation (ΔC) fused to the DNA binding domain (DB) of GAL4 (C. elegans); assay: as above
[13] = molecular target: SYP-1 full length fused to the DNA binding domain (DB) of GAL4 (C. elegans); assay: as above
[14] = molecular target: SYP-1 N-terminal truncation (ΔN) fused to the DNA binding domain (DB) of GAL4 (C. elegans); assay: as above
[15] = molecular target: SYP-2 full length fused to the DNA binding domain (DB) of GAL4 (C. elegans); assay: as above

binding [1]	binding [2]	binding [3]	binding [4]	binding [5]	binding [6]	binding [7]	binding [8]	binding [9]	binding [10]	binding [11]	binding [12]	binding [13]	binding [14]	binding [15]	Binder
no binding	binds	no binding	no binding	no binding	no binding	no binding	–	–	–	–	–	–	–	–	B1
–	–	–	–	–	–	–	no binding	binds	no binding	no binding	no binding	no binding	no binding	no binding	B2
